In patent publication US20140249490A1, “Methods for Prevention and/or Treatment of Capsular Contracture” (J&E SOLUTIONS, LLC, priority 2013, published 2014):
For at least one compound, name, drawing or mass did not settle the structure.

System: capsular contracture
Test: Clinical cases: topical treatment of breast capsular contracture, Baker grading
Type: in vivo, human
Details: Patient #1; capsules recurred after 410 cohesive silicone implants
Description: Wash and dry the affected area (that is, the skin surrounding the implant or the skin over the capsular contracture) prior to use. Apply the composition daily (use sparingly) with vigorous massage to affected area. If necessary, exert compression or pressure when massaging to break up existing capsule. Enhanced absorption is obtained with application of the composition following a hot shower. Occlusive dressing (hydrogel), or tight clothing (sports bras), will also enhance the result. Continued daily use will yield optimal results. […] Optimal results are best maintained with daily continued application. One particularly useful embodiment of the invention involves the use of the topical compositions for the treatment/prevention of capsular contracture in breast surgery (e.g., breast implants). There are four grades of breast capsular contracture—Baker grades I through IV. The Baker grading is as follows: Grade 1—the breast is normally soft and looks natural Grade II—the breast is a little firm but looks normal Grade III—the breast is firm and looks abnormal Grade IV—the breast is hard, painful, and looks abnormal. of developed or is at risk of developing capsular contracture a topical composition.

## CC(C)(O)c1ccccc1CC[C@@H](SCC1(CC(=O)O)CC1)c1cccc(/C=C/c2ccc3ccc(Cl)cc3n2)c1 [Singulair, Montelukast sodium]
  response of recurred capsules to treatment: without improvement
